These are yes or no findings as the source states them, for the method shown.

Holding throughout (assay): phage ELISA
In general terms: In an ELISA, binding on a coated surface is turned into a signal by an enzyme label.

The target in assay [1] is keyhole limpet haemocyanin (keyhole limpet).
The target in assay [2] is thyroglobulin.
Assay [3] addresses cytochrome C.
Assay [4] deals with trypsin inhibitor.
Assay [5] has as its target GAP-DH (glyceraldehyde-3-phosphate dehydrogenase).

B1: Lysozyme binder VH13.1 / VL13.1 (scFv, V domains shown)
VH: QVQLVQSGAEVKKPGQSLMISCQGSGYSFSNYWIGWVRQMPGKGLEWMGIIYPGDSDTRYSPSFQGQVTISADKSISTAYLHWSSLKASDTALYYCARLVGGTPAYWGQGT
VL: HVILTQPASVSGSPGQSITISCTGSSRDVGGYNYVSWYQHHPGKAPKLLISEVTNRPSGVSNRFSGSKSGNTASLTISGLQAEDEADYFCASYTSSKTYVFGG
Take B1: the binding entry in assay [1], in assay [2], in assay [3], in assay [4] and in assay [5] was “no binding (tested: 100 ug/ml for coating)” in each case.

B2: Lysozyme binder VH14.1 / VL14.1 (scFv, V domains shown)
VH: QVQLQESGPGLVKPSETLSLVCTVSGGSLSFSYWGWIRQPPGKGLEWIGYISHRGTDYNSSLQSRVTISADTSKNQFSLKLSSVTAADTAVYYCARSFSNSFFFGYWGQGT
VL: SSELTQDPAVSVAFGQTVRITCQGDSLRSSYASWYQQKPGQAPLLVIYGENSRPSGIPDRFSGSSSGNTASLTITGAQAEDEADYYCNSRDSRGTHLEVFGG
notes: Human scFv in pHEN1 on phage; Paired by common number
Consider B2, for which the binding result in assay [1], in assay [2], in assay [3], in assay [4] and in assay [5] was “no binding (tested: 100 ug/ml for coating)” throughout.

Values taken from patent US6806079.
